# Measured values as given in ChEMBL document CHEMBL5674883, “The Heterochromatin Landscape in Migrating Cells and the Importance of H3K27me3 for Associated Transcriptome Alterations” (Cells, 2018).
# Chains of the proteins cited; added tags and fusions are not shown.
# UniProt Q61188, whole entry: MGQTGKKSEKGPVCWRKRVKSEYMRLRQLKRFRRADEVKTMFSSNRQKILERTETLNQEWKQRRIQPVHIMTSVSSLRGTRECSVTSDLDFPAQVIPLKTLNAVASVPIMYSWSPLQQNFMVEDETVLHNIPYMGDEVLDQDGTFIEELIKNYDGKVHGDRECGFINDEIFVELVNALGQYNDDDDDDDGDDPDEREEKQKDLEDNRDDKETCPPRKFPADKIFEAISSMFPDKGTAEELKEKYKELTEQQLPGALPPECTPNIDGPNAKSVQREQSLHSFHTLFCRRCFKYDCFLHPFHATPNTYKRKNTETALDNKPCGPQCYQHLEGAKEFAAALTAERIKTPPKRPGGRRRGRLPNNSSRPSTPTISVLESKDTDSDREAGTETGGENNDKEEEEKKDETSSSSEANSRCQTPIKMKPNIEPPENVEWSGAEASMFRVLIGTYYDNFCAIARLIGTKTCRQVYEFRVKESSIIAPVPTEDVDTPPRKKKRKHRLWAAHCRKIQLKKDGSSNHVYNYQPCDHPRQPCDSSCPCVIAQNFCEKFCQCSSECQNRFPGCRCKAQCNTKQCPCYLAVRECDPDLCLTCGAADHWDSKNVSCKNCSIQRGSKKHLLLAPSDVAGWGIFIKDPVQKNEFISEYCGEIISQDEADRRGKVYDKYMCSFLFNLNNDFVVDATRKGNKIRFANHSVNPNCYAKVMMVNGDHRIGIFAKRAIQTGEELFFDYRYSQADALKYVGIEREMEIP
# Further values from the same series stand in other lists.
# Experiments:
# Type in all cases: cell-based
# [1] = target: T1, RNA polymerase II (Mus musculus) (UniProt P08775+Q8CFI7+P97760+A0A3Q4L2S8+Q80UW8+P61219+P62488+Q923G2+P60898+O08740+Q63871+P62876); assay: Inhibition of RNA polymerase II in mouse B16-F1 migrating cells assessed as fold change in Atp2c1-RNA stability at 0.1 mM measured by ChIP-seq analysis relative to control cells
# [2] = target: T1, RNA polymerase II (Mus musculus); assay: Inhibition of RNA polymerase II in mouse B16-F1 migrating cells assessed as fold change in Fkbp2-RNA stability at 0.1 mM measured by ChIP-seq analysis relative to control cells
# [3] = target: T1, RNA polymerase II (Mus musculus); assay: Inhibition of RNA polymerase II in mouse B16-F1 migrating cells assessed as fold change in Atp11c-RNA stability at 0.1 mM measured by ChIP-seq analysis relative to control cells
# [4] = target: T1, RNA polymerase II (Mus musculus); assay: Inhibition of RNA polymerase II in mouse B16-F1 migrating cells assessed as fold change in Psmf1-RNA stability at 0.1 mM measured by ChIP-seq analysis relative to control cells
# [5] = target: T1, RNA polymerase II (Mus musculus); assay: Inhibition of RNA polymerase II in mouse B16-F1 migrating cells assessed as fold change in Map4k5-RNA stability at 0.1 mM measured by ChIP-seq analysis relative to control cells
# [6] = target: T1, RNA polymerase II (Mus musculus); assay: Inhibition of RNA polymerase II in mouse B16-F1 migrating cells assessed as fold change in Slc35c2-RNA stability at 0.1 mM measured by ChIP-seq analysis relative to control cells
# [7] = target: T1, RNA polymerase II (Mus musculus); assay: Inhibition of RNA polymerase II in mouse B16-F1 migrating cells assessed as fold change in Cul5-RNA stability at 0.1 mM measured by ChIP-seq analysis relative to control cells
# [8] = target: T1, RNA polymerase II (Mus musculus); assay: Inhibition of RNA polymerase II in mouse B16-F1 migrating cells assessed as fold change in Dpy19l1-RNA stability at 0.1 mM measured by ChIP-seq analysis relative to control cells
# [9] = target: T1, RNA polymerase II (Mus musculus); assay: Inhibition of RNA polymerase II in mouse B16-F1 migrating cells assessed as fold change in 0610010F05Rik-RNA stability at 0.1 mM measured by ChIP-seq analysis relative to control cells
# [10] = target: T1, RNA polymerase II (Mus musculus); assay: Inhibition of RNA polymerase II in mouse B16-F1 migrating cells assessed as fold change in Impad1-RNA stability at 0.1 mM measured by ChIP-seq analysis relative to control cells
# [11] = target: T1, RNA polymerase II (Mus musculus); assay: Inhibition of RNA polymerase II in mouse B16-F1 migrating cells assessed as fold change in Dnal4-RNA stability at 0.1 mM measured by ChIP-seq analysis relative to control cells
# [12] = target: T1, RNA polymerase II (Mus musculus); assay: Inhibition of RNA polymerase II in mouse B16-F1 migrating cells assessed as fold change in Gtpbp4-RNA stability at 0.1 mM measured by ChIP-seq analysis relative to control cells
# [13] = target: T1, RNA polymerase II (Mus musculus); assay: Inhibition of RNA polymerase II in mouse B16-F1 migrating cells assessed as fold change in Prkcz-RNA stability at 0.1 mM measured by ChIP-seq analysis relative to control cells
# [14] = target: T1, RNA polymerase II (Mus musculus); assay: Inhibition of RNA polymerase II in mouse B16-F1 migrating cells assessed as fold change in Ltbr-RNA stability at 0.1 mM measured by ChIP-seq analysis relative to control cells
# [15] = target: T1, RNA polymerase II (Mus musculus); assay: Inhibition of RNA polymerase II in mouse B16-F1 migrating cells assessed as fold change in Cav2-RNA stability at 0.1 mM measured by ChIP-seq analysis relative to control cells
# [16] = target: T1, RNA polymerase II (Mus musculus); assay: Inhibition of RNA polymerase II in mouse B16-F1 migrating cells assessed as fold change in Mrpl54-RNA stability at 0.1 mM measured by ChIP-seq analysis relative to control cells
# [17] = target: Histone-lysine N-methyltransferase EZH2 (Mus musculus) (UniProt Q61188); assay: Inhibition of EZH2 in mouse B16-F1 migrating cells assessed as fold change in H3K27me3-dependent regulated Sertad1-mRNA expression at 3 uM measured by ChIP-seq analysis relative to control cells
# [18] = target: Histone-lysine N-methyltransferase EZH2 (Mus musculus) (UniProt Q61188); assay: Inhibition of EZH2 in mouse B16-F1 migrating cells assessed as fold change in H3K27me3-buffered regulated Fam212a-mRNA expression at 3 uM measured by ChIP-seq analysis relative to control cells
# [19] = target: Histone-lysine N-methyltransferase EZH2 (Mus musculus) (UniProt Q61188); assay: Inhibition of EZH2 in mouse B16-F1 migrating cells assessed as fold change in H3K27me3-buffered regulated Rab11fip4-mRNA expression at 3 uM measured by ChIP-seq analysis relative to control cells
# [20] = target: Histone-lysine N-methyltransferase EZH2 (Mus musculus) (UniProt Q61188); assay: Inhibition of EZH2 in mouse B16-F1 migrating cells assessed as fold change in H3K27me3-independent regulated Pfkp-mRNA expression at 3 uM measured by ChIP-seq analysis relative to control cells
# [21] = target: Histone-lysine N-methyltransferase EZH2 (Mus musculus) (UniProt Q61188); assay: Inhibition of EZH2 in mouse B16-F1 migrating cells assessed as fold change in H3K27me3-buffered regulated Rab11fip1-mRNA expression at 3 uM measured by ChIP-seq analysis relative to control cells
# [22] = target: Histone-lysine N-methyltransferase EZH2 (Mus musculus) (UniProt Q61188); assay: Inhibition of EZH2 in mouse B16-F1 migrating cells assessed as fold change in H3K27me3-buffered regulated Perp-mRNA expression at 3 uM measured by ChIP-seq analysis relative to control cells
# [23] = target: Histone-lysine N-methyltransferase EZH2 (Mus musculus) (UniProt Q61188); assay: Inhibition of EZH2 in mouse B16-F1 migrating cells assessed as fold change in H3K27me3-buffered regulated Plk3-mRNA expression at 3 uM measured by ChIP-seq analysis relative to control cells
# [24] = target: Histone-lysine N-methyltransferase EZH2 (Mus musculus) (UniProt Q61188); assay: Inhibition of EZH2 in mouse B16-F1 migrating cells assessed as fold change in H3K27me3-buffered regulated Bbc3-mRNA expression at 3 uM measured by ChIP-seq analysis relative to control cells
# [25] = target: Histone-lysine N-methyltransferase EZH2 (Mus musculus) (UniProt Q61188); assay: Inhibition of EZH2 in mouse B16-F1 migrating cells assessed as fold change in H3K27me3-buffered regulated Ets1-mRNA expression at 3 uM measured by ChIP-seq analysis relative to control cells
# [26] = target: Histone-lysine N-methyltransferase EZH2 (Mus musculus) (UniProt Q61188); assay: Inhibition of EZH2 in mouse B16-F1 migrating cells assessed as fold change in H3K27me3-buffered regulated Tom1-mRNA expression at 3 uM measured by ChIP-seq analysis relative to control cells
# [27] = target: Histone-lysine N-methyltransferase EZH2 (Mus musculus) (UniProt Q61188); assay: Inhibition of EZH2 in mouse B16-F1 migrating cells assessed as fold change in H3K27me3-buffered regulated Ston1-mRNA expression at 3 uM measured by ChIP-seq analysis relative to control cells
# [28] = target: Histone-lysine N-methyltransferase EZH2 (Mus musculus) (UniProt Q61188); assay: Inhibition of EZH2 in mouse B16-F1 migrating cells assessed as fold change in H3K27me3-buffered regulated B3galt5-mRNA expression at 3 uM measured by ChIP-seq analysis relative to control cells
# [29] = target: Histone-lysine N-methyltransferase EZH2 (Mus musculus) (UniProt Q61188); assay: Inhibition of EZH2 in mouse B16-F1 migrating cells assessed as fold change in H3K27me3-buffered regulated Gm20457-mRNA expression at 3 uM measured by ChIP-seq analysis relative to control cells
# [30] = target: Histone-lysine N-methyltransferase EZH2 (Mus musculus) (UniProt Q61188); assay: Inhibition of EZH2 in mouse B16-F1 migrating cells assessed as fold change in H3K27me3-buffered regulated Haus3-mRNA expression at 3 uM measured by ChIP-seq analysis relative to control cells
structure (smiles),measurement,setting,value
OC[C@H]1O[C@@H](n2cnc3cc(Cl)c(Cl)cc32)[C@H](O)[C@@H]1O,log2FC,[1],-0.46
same,log2FC,[2],0.47
same,log2FC,[3],-0.8
same,log2FC,[4],0.38
same,log2FC,[5],-0.54
same,log2FC,[6],0.52
same,log2FC,[7],-0.61
same,log2FC,[8],-0.38
same,log2FC,[9],-0.46
same,log2FC,[10],-0.54
same,log2FC,[11],0.61
same,log2FC,[12],-0.5
same,log2FC,[13],0.55
same,log2FC,[14],0.42
same,log2FC,[15],-0.68
same,log2FC,[16],0.55
CCCc1cc(C)[nH]c(=O)c1CNC(=O)c1cc(-c2ccnc(N3CCN(C)CC3)c2)cc2c1cnn2C(C)C,log2FC,[17],0.25
same,log2FC,[18],-0.74
same,log2FC,[19],-0.49
same,log2FC,[20],0.49
same,log2FC,[21],0.38
same,log2FC,[22],0.83
same,log2FC,[23],0.46
same,log2FC,[24],-0.78
same,log2FC,[25],-0.41
same,log2FC,[26],0.45
same,log2FC,[27],-0.45
same,log2FC,[28],0.51
same,log2FC,[29],-1.08
same,log2FC,[30],-0.41
